The values that follow come from PubChem BioAssay AID493014 (National Center for Advancing Translational Sciences (NCATS), 2011).

A short description of the test: qHTS Assay to Find Inhibitors of Chronic Active B-Cell Receptor Signaling. To be noted: ABC-DLBCL IkBa-CBG/CBR reporter, luminescence ratio (green luciferase fused to IkBa over red control in TMD8 lymphoma cells), 4 h. The procedure, abridged: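 Cell line TMD8 (human ABC DLBCL), stably expressing tet-inducible CBG68-IkBa fusion and CBR; IMDM/0.5% FBS; cpd up to 46 uM; dox induction, 4 h, 37C/5% CO2; dual luminescence; green/red ratio; MG132 control.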
For orientation: Quantitative high-throughput screening tests each substance at several concentrations.

The mark [1] stands for this setting: measured here: CBR red luminescence, cell number.
[2] abbreviates: measured here: IkBa-CBG green luminescence.

“And” between values parts separate entries of the source, which are not always exact repeats. Identical values can stand only once. The list shows a part of the results. Shown are side measurements of this screen, not its main read-out; they come without a call. Compounds called inactive in the main read-out are mostly missing here. Words in brackets tell the shape of the fitted curve; partial curves, single points and poor fits give uncertain potencies.

A word on the AC50: it is the midpoint of the concentration-response curve, whichever way the signal moves. As for `Cc1cccc(N(CC(=O)Nc2ccc(F)cc2)S(C)(=O)=O)c1`, under setting [1], the AC50 was 0.184 µM [falling, full curve, poor fit].
In the case of `COCCCNC(=O)c1ccccc1NS(C)(=O)=O`, the AC50 under setting [1] was 18.4 µM [rising, single point].
For the compound `COc1ccc(/C=C2\C(=O)OCc3cc(OC)c(OC)cc32)cc1OC`, the AC50 reads like this: under setting [1], 13 µM [rising, partial curve, poor fit]; under setting [2], 14.6 µM [falling, partial curve, poor fit].
As to `CC1(N2CCOCC2)CC2(O)C(=[N+]1[O-])CCc1c2no[n+]1[O-]` (stereo not given), the AC50 under setting [1] was 0.282 µM [rising, full curve, poor fit].
The same measure, in the same setting: the figure for `COc1cccc(NC(=O)C/C(C)=N/NC(=O)c2ccccc2Cl)c1` is 11.2 µM [falling, partial curve].
Turning to `CCC(=O)NC(Cc1ccccc1)c1ccc2c(c1)OCCCO2` (stereo not given), under setting [1], the AC50 is 10.3 µM [rising, partial curve, poor fit].
On the same count and under the same terms, then `Cc1nc(Nc2cc(F)ccc2C)c2nnn(Cc3ccccc3)c2n1`, with 35.5 µM [falling, single point]; and `CC(=O)Nc1ccc(S(=O)(=O)Nc2cccc(S(=O)(=O)N(C)c3ccccc3)c2)cc1`, with 3.66 µM [falling, full curve, poor fit].
The same measure, in the same setting: the figure for `CCn1c(SCC(=O)Nc2nc(C)c(C(=O)OC)s2)nnc1C(C)C` is 3.16 µM [falling, full curve, poor fit]; for `Cc1[nH]n(-c2ccccc2)c(=O)c1/C=N/N1CCOCC1` it is 35.5 µM [rising, single point].
Consider `COc1ccccc1-c1cc(C(=O)NCc2ccco2)no1`, for which the AC50 under setting [1] was 2 µM [falling, full curve].
`COc1ccccc1N1C(=O)C2ON(c3ccccc3)C(c3ccc(N(C)C)cc3)C2C1=O` (stereo not given): the AC50 under setting [1] is 7.31 µM [falling, partial curve, poor fit].
On to `O=C(CCN1C(=O)/C(=C/c2ccc(F)cc2)SC1=S)NC1CCS(=O)(=O)C1` (stereo not given), for which the AC50 under setting [1] is 10 µM [falling, partial curve, poor fit].
As for `COC(=O)c1cnc2ccccc2n1`, the AC50 under setting [1] was 0.00517 µM [falling, full curve, poor fit].
For `Cc1ccc(/C=C/C(=O)Nc2ccc(S(=O)(=O)Nc3onc(C)c3C)cc2)cc1`, the AC50 under setting [1] is 35.5 µM [falling, single point].
Same read-out and setting: the figure for `COc1ccc(C(=O)NC(=S)NNC(=O)CNC(=O)C2CCCCC2)cc1` is 0.224 µM [rising, full curve, poor fit]; for `CN(CCC#N)c1ccc(/C=C(\C#N)c2ccccn2)cc1` it is 2.06 µM [falling, single point].
Consider `O=C(CSc1cccc[n+]1[O-])C12CC3CC(CC(C3)C1)C2`, for which the AC50 is 22.4 µM [falling, single point] under setting [1] and 35.5 µM [rising, partial curve, poor fit] under setting [2].
As for `COc1ccccc1NC(=O)CN1CCSc2ccccc21`, the AC50 under setting [1] was 6.31 µM [falling, full curve].
Same read-out and setting: then `CCOc1ccccc1N/C(=N/c1nc(C)cc(C)n1)NC(=O)Nc1ccc(Cl)c(Cl)c1`, with 11.6 µM [rising, single point]; and `Cn1cccc1C(=O)NC(=O)COC(=O)c1cc(S(=O)(=O)N2CCCCC2)ccc1Cl`, with 1.12 µM [falling, full curve]; and `COc1ccccc1CNS(=O)(=O)c1c(C)nc2sccn2c1=O`, with 35.5 µM [rising, single point].
On to `CCCCC(=O)Nc1ncc([N+](=O)[O-])s1`, for which, under setting [1], the AC50 is 17.8 µM [falling, single point].
Still for that read-out and setting: the figure for `O=C1C=C(N(CCO)Cc2ccccc2)c2ccccc2C1=O` is 35.5 µM [falling, single point]; for `CCc1cc(=O)oc2c(CN3CCN(C)CC3)c(O)c(Cl)cc12` it is 0.92 µM [rising, full curve, poor fit].
With `CC(=O)Nc1ccc(C(=O)OCCC(C)C)cc1`, under setting [1], the AC50 is 2.06 µM [rising, full curve, poor fit].
On to `O=[N+]([O-])c1ccc(COc2ccc(-c3[nH]ncc3-c3ccccc3)c(O)c2)cc1`, for which, under setting [1], the AC50 was 29.1 µM [rising, single point].
Regarding `O=C1NC[C@@H](Cc2cccc3ccccc23)N(CC2CCCCC2)C1=O`, under setting [1], the AC50 was 8.91 µM [rising, partial curve].
The same measure, in the same setting: the figure for `COCCN1C(=O)N(c2cccc(OC)c2)C(=O)C1CC(=O)Nc1ccc(Cl)cc1` (stereo not given) is 10 µM [rising, partial curve, poor fit].
As for `COC(=O)c1ccc(CN(c2ccccc2OC)S(=O)(=O)c2cccs2)o1`, under setting [1], the AC50 is 3.66 µM [falling, full curve, poor fit].
Same read-out and setting: then `O=C(Nc1cccc2cccc(NC(=O)c3ccco3)c12)c1ccco1`, with 7.31 µM [falling, partial curve, poor fit].
Take `Cc1ccc(/C=C2\SC(=O)N(CCC(=O)N3CCN(C)CC3)C2=O)cc1`: the AC50 under setting [1] was 10 µM [falling, partial curve].
Turning to `Cc1ccc(S(=O)(=O)Nc2c(C)n(C)n(-c3ccccc3)c2=O)cc1`, the AC50 under setting [1] is 0.411 µM [rising, full curve, poor fit].
On the same count and under the same terms, the figure for `O=C1NCCN/C1=C\C(=O)c1ccc(Br)cc1` is 11.2 µM [falling, partial curve, poor fit]; for `COc1ccc(COC(=O)C2=C(C)NC(=O)NC2c2ccc(F)cc2)cc1` (stereo not given) it is 11.2 µM [falling, single point]; for `CNC(=O)C1=NCCCc2cc(OC)c(OC)cc21` it is 29.1 µM [rising, single point].
`Cc1cc(C(=O)Nc2nc(C)c(C(=O)N(C)C)s2)ccc1[N+](=O)[O-]`: the AC50 under setting [1] is 6.51 µM [rising, partial curve].
As to `CCOC(=O)c1c(NC(=O)/C=C/C(=O)O)sc(C)c1-c1ccc(F)cc1`, under setting [1], the AC50 is 35.5 µM [falling, partial curve, poor fit].
For the compound `O=C(NCCc1c[nH]c2ccccc12)C(=O)NCC1OCCN1S(=O)(=O)c1ccc(F)cc1` (stereo not given), the AC50 under setting [1] was 32.6 µM [rising, partial curve, poor fit].
For `CCCNC(=O)c1ccccc1NC(=O)Nc1ccccc1C`, the AC50 under setting [1] is 29.1 µM [rising, single point].
For `CC1(C(=O)OCc2cc(=O)n3cc(Br)ccc3n2)CC1(Cl)Cl` (stereo not given), under setting [1], the AC50 is 1.26 µM [rising, full curve, poor fit].
The same measure, in the same setting: the figure for `CC(=O)c1cccc(NC(=O)Nc2cccs2)c1` is 5.8 µM [rising, single point]; for `O=C1CCC2S/C(=C/Nc3ccc(C(F)(F)F)cc3)C(=O)N12` (stereo not given) it is 12.6 µM [falling, partial curve]; for `C=C[C@@H]1c2ccccc2N(S(=O)(=O)c2ccc(C)cc2)[C@H](c2ccc(C(F)(F)F)cc2)C1(C#N)C#N` it is 18.4 µM [rising, single point].
In the case of `COc1ccc(N2CS(=O)(=O)/C(=C/N(C)C)C2=O)cc1`, the AC50 under setting [1] was 31.6 µM [rising, single point].
Still for that read-out and setting: the figure for `CC(C)(C)c1nc(NCCO)c2nnn(Cc3ccccc3)c2n1` is 14.1 µM [rising, partial curve, poor fit]; for `CCOC(=O)c1ccc(Oc2nc(N(C)C)nc(N3CCOCC3)n2)cc1` it is 35.5 µM [rising, single point].
The same measure, in the same setting: the figure for `CCOC(=O)c1ccccc1NC(=O)c1cn(-c2ccc(OC)cc2)c(=O)c2ccccc12` is 0.146 µM [rising, full curve, poor fit].
As to `N/C(=N\OC(=O)c1ccc2c(c1)OCO2)c1ccncc1`, the concentration at half-maximal activity (AC50) under setting [1] was 10 µM [falling, partial curve].
On to `CCCN(CCC)CCCNC(=S)Nc1ccc2nc(N3CCCC3)cc(C)c2c1`, for which the AC50 under setting [1] is 2.82 µM [falling, partial curve, poor fit].
Take `Cc1[nH]n(-c2ccccc2)c(=O)c1C=Nc1cccc(F)c1`: the AC50 under setting [1] is 0.501 µM [rising, partial curve, poor fit].
Regarding `Cc1cccc2nc(-c3ccco3)oc(=O)c12`, the half-maximal activity concentration (AC50) under setting [1] was 2.82 µM [falling, partial curve, poor fit].
Consider `Cn1nccc1C(=O)Oc1cccc(/C=N/NC(=O)c2ccccc2O)c1`, for which the half-maximal activity concentration (AC50) under setting [1] was 1 µM [falling, full curve, poor fit].
Regarding `CC1SC(C)C(=O)N(CC(=O)NCc2ccc(F)cc2)C1=O` (stereo not given), the AC50 under setting [1] was 25.9 µM [rising, single point].
On the same count and under the same terms, the figure for `COc1ccc(Nc2nc(C)c3ccccc3n2)cc1` is 0.82 µM [rising, full curve]; for `NC(=O)C1CCN(c2nc(-c3cccc(Cl)c3)cs2)CC1` it is 25.9 µM [rising, single point] and 14.6 µM [rising, partial curve, poor fit].
Turning to `Cc1ccc(C)c(N(CC(=O)NC2CCCC2)C(=O)c2oc(C(C)(C)C)cc2C)c1`, under setting [1], the AC50 is 20.6 µM [falling, partial curve, poor fit].
On to `COCCNC(=O)c1onc(CSc2cccc(C)c2)c1C(=O)O`, for which the AC50 under setting [1] is 14.1 µM [falling, single point].
Consider `CCN(CC)C(=O)CN1C(=O)C2(OCC(C)(c3ccccc3)CO2)c2ccccc21` (stereo not given), for which the AC50 under setting [1] is 35.5 µM [rising, partial curve, poor fit].
Same read-out and setting: then `COc1ccc2c(c1)c(CC(=O)Nc1cccc(S(N)(=O)=O)c1)c(C)n2C(=O)c1ccc(Cl)cc1`, with 11.2 µM [falling, partial curve, poor fit]; and `Cc1cc(C)c(S(=O)(=O)ON2C(=O)c3ccccc3C2=O)cc1C`, with 12.6 µM [rising, partial curve, poor fit].
For the compound `CN(C)c1nc(OCCNC(=O)COc2ccc(Cl)cc2Cl)nc(N2CCOCC2)n1`, the concentration at half-maximal activity (AC50) under setting [1] was 5.8 µM [rising, single point].
On the same count and under the same terms, the figure for `O=C(NCc1ccco1)c1cc2n(n1)C(C(F)(F)F)CC(c1ccc(Br)cc1)N2` (stereo not given) is 22.4 µM [rising, single point].
